Assay results reported in the supplement of paper PMC12819154, “High-throughput peptide-centric local stability assay extends protein–ligand identification to membrane proteins, tissues and bacteria” (Nature Structural & Molecular Biology, 2025).
The list shows a part of the results. Most entries show no effect beyond the scatter of the controls.

By UniProt entry, the sequences of proteins in these tests, tags left out. Where a name states a change or a piece, a line headed by the entry shows the natural chain unless it says otherwise.
UniProt O60674: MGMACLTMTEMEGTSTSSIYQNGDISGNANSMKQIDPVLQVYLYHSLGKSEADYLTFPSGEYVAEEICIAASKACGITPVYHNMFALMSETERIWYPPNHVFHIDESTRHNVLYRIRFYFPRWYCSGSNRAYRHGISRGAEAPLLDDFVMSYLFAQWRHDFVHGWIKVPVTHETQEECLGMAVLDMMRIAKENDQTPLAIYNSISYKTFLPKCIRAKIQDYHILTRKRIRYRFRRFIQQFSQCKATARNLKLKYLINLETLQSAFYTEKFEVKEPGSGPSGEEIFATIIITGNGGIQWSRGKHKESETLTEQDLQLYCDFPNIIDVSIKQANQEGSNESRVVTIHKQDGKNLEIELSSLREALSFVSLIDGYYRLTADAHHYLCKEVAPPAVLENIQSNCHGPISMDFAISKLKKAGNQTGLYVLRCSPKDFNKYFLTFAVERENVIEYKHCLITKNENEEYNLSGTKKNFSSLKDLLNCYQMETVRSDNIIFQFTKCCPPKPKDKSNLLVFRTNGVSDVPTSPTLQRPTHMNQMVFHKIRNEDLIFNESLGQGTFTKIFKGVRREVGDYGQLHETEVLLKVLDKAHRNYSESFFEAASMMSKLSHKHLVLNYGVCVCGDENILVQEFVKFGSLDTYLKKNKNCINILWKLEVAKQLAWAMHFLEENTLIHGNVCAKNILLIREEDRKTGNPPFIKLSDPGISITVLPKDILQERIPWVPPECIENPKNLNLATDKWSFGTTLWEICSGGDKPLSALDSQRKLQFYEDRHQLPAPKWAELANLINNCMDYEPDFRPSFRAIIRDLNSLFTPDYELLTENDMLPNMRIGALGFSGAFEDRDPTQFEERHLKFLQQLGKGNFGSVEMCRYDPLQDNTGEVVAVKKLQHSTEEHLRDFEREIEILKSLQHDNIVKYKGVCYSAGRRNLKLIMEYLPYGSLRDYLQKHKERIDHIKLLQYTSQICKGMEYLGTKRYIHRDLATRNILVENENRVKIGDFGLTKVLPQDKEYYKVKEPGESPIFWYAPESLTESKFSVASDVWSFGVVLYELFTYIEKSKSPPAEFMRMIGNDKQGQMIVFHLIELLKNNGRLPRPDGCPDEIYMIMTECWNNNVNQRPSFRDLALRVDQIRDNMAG
UniProt O15550, whole entry: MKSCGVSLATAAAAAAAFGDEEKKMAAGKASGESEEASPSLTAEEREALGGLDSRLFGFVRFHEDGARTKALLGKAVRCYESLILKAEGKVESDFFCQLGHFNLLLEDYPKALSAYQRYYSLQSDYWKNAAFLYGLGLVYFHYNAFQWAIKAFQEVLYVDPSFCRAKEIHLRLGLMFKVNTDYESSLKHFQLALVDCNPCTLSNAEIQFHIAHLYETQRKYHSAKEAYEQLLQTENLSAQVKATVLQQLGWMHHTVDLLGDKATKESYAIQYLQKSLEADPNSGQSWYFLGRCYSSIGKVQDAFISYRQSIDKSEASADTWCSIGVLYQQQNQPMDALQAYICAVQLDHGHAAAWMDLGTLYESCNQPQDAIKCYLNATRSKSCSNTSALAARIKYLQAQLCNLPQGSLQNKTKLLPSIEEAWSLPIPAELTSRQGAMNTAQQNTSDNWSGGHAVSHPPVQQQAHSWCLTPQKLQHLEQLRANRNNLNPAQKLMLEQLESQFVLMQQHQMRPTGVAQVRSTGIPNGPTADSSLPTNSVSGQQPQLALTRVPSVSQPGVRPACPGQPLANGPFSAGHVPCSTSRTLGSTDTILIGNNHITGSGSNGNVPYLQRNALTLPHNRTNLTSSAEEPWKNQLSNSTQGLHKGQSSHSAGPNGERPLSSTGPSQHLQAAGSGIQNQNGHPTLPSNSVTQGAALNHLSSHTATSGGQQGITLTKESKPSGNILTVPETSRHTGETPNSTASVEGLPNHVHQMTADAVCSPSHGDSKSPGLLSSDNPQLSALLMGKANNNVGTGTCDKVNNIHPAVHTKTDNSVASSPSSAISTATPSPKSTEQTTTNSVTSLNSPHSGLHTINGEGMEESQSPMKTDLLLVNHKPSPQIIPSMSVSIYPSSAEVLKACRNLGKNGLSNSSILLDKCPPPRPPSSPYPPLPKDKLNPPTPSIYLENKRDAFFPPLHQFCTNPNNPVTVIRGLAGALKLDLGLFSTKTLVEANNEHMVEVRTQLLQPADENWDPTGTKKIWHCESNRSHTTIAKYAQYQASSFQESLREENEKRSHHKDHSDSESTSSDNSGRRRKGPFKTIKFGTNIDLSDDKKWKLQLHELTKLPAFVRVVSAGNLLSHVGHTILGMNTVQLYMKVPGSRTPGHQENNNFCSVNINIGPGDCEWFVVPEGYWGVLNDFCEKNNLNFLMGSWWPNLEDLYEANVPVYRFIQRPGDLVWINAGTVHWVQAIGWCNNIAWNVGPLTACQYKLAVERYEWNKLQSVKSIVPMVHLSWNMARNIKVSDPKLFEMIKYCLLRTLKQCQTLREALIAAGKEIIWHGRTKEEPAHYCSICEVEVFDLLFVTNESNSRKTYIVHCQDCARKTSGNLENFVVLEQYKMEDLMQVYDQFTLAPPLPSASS
UniProt O43524: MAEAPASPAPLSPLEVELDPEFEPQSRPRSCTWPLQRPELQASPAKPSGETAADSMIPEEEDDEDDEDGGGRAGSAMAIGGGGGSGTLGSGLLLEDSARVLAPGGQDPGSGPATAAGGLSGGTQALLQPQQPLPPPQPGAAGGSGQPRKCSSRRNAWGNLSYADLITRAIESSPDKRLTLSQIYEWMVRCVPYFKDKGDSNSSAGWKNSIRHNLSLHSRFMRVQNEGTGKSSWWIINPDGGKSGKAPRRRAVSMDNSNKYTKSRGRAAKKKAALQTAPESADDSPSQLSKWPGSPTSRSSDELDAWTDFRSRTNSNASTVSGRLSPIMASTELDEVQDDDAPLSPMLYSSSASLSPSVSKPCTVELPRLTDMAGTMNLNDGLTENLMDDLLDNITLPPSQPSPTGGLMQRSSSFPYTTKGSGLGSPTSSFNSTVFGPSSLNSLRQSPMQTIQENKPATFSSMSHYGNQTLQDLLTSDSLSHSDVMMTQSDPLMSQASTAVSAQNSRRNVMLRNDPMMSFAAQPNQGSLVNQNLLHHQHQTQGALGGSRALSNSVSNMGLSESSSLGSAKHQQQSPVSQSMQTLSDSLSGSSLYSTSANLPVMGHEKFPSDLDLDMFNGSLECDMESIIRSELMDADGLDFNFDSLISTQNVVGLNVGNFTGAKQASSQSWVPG
UniProt O75306, whole entry: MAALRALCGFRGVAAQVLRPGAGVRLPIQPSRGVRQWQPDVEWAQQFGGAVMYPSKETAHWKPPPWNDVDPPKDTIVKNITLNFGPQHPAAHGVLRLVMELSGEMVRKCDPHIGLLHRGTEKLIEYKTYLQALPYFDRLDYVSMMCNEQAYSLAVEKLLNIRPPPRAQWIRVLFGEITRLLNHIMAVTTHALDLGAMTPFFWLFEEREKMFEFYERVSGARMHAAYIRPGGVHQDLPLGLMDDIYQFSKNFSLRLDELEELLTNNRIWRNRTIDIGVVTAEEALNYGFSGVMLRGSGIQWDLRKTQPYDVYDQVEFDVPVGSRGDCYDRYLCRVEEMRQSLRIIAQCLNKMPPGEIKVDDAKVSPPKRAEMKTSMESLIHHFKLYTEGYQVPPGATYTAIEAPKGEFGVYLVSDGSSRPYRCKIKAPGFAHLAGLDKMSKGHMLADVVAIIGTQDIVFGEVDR
UniProt O60237: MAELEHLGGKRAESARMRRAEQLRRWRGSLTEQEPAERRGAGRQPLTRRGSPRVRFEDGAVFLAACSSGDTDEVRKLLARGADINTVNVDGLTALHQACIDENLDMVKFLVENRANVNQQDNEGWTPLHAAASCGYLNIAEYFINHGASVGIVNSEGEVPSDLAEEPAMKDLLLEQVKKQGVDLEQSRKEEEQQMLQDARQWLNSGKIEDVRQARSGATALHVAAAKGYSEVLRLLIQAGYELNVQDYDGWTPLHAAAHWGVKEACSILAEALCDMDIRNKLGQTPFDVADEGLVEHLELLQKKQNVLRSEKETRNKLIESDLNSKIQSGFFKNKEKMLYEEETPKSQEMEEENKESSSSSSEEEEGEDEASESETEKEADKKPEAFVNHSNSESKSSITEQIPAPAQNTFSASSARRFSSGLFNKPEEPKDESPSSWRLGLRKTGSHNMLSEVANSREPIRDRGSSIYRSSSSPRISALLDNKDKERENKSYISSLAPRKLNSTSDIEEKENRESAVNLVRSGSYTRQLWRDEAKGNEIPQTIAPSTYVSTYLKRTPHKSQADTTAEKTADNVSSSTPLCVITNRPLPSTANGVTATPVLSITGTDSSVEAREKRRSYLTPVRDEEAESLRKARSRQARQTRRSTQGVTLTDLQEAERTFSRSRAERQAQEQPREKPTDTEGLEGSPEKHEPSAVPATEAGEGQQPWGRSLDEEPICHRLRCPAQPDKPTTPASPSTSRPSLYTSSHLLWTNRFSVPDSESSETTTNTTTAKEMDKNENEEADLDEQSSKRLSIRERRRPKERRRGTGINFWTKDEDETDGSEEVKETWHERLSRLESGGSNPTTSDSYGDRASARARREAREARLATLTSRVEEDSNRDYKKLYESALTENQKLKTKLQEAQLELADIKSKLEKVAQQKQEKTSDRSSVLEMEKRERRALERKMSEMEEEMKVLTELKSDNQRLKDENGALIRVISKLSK
UniProt O75154: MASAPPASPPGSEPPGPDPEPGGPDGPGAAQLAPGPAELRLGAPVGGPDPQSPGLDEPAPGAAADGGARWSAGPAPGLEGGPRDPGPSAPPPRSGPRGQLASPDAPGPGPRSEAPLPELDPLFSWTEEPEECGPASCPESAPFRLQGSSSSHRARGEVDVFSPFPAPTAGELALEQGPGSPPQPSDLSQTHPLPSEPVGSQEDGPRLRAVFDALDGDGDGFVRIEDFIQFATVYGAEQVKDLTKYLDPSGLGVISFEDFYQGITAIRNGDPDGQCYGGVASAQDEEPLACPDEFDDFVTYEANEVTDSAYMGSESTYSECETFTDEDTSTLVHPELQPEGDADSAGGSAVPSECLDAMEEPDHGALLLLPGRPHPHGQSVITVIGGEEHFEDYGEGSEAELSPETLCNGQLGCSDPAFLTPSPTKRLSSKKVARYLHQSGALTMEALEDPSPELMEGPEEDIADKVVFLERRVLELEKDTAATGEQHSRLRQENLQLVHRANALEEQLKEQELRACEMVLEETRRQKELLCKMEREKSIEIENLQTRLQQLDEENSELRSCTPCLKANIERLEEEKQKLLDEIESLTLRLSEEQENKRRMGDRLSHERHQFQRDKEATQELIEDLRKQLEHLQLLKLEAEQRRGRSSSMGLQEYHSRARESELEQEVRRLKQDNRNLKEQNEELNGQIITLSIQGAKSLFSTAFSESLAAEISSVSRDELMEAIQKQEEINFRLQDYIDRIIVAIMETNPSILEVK
UniProt O15504: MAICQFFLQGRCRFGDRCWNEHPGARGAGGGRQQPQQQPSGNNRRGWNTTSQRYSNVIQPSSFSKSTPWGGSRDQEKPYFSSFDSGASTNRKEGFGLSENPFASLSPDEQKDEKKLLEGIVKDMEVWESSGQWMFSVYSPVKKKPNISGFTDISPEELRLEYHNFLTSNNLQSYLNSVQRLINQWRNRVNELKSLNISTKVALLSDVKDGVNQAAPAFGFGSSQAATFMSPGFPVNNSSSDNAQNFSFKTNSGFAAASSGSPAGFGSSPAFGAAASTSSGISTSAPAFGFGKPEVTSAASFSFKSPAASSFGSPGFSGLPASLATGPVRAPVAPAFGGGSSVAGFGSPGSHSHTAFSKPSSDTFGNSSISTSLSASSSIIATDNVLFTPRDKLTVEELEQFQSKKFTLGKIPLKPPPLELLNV

compound: CN[C@@H]1C[C@H]2O[C@@](C)([C@@H]1OC)n1c3ccccc3c3c4c(c5c6ccccc6n2c5c31)C(=O)NC4 [staurosporine]; test: log2 fold change of tryptic peptide abundance, ligand vs vehicle (limited proteolysis) (log2 ratio); higher = more trypsin-susceptible (destabilized); conditions: ligand concentration: 20 uM; sample: K562 cleared lysate; digestion: 4 min, 22 C (HT-PELSA RT4min, Orbitrap Astral)

Target | log2 fold change
ZEB2 (peptide sequence: IKTEPLDFNDYK, peptide start residue: 390) (UniProt O60315) | -0.487
Jak2 (peptide sequence: NILLIREEDRK, peptide start residue: 678) (UniProt O60674) | -0.394
KDM6A (peptide sequence: NGLSNSSILLDK, peptide start residue: 906) (UniProt O15550) | -0.192
FOXO3 (peptide sequence: HNLSLHSR, peptide start residue: 212) (UniProt O43524) | 0.567
NDUFS2 (peptide sequence: NITLNFGPQHPAAHGVLR, peptide start residue: 79) (UniProt O75306) | -0.168
PPP1R12B (peptide sequence: GSLTEQEPAER, peptide start residue: 28) (UniProt O60237) | -0.45
RAB11FIP3 (peptide sequence: ACEMVLEETRR, peptide start residue: 515) (UniProt O75154) | -0.42
UniProt O15504 (peptide sequence: DQEKPYFSSFDSGASTNRK, peptide start residue: 74) | 0.299
